Source: PubChem BioAssay AID504834 (National Center for Advancing Translational Sciences (NCATS), 2011)
Among all 320,000 compounds or so, about 22,000 (6.9%) were called active. The inconclusive results got no clear call from the source; some entries with a clear call stand among them for comparison. Calls come from the whole dose curve; as a rule, active = well fitted inhibition curve with a large enough effect; inconclusive = small, poorly fitted or top-dose-only effect, or another doubt; inactive = no such curve, though single readings can be large or run the other way. Potencies beside an inconclusive call are fits to weak or partial responses and may not hold up.

Experiment: Primary qHTS for delayed death inhibitors of the malarial parasite plastid, 96 hour incubation
Conditions: P. falciparum luciferase reporter growth; series mostly up to 28.7 µM
Procedure, shortened: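 Infected RBCs, 2% Hct / 0.05% parasitemia final; luciferase-reporter P. falciparum; cpd 96 h, 37 C, 5% CO2; luciferase detection reagent; luminescence.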
% is set by controls: 0 for no effect and ±100 for the full control effect; potency is the fitted concentration of half-maximal effect.

SMILES	Potency	activity change, negative = inhibition
CN(CCC#N)C(=O)COc1ccc(Br)cc1Cl	inconclusive: 13.1 µM [inhibitor, partial curve]	–
CC(Cc1ccccc1)NC(=O)CCCN1C(=O)c2ccccc2C1=O (stereo not drawn)	inconclusive: 18.5 µM [inhibitor, single point]	–
CC12CC3(C)CC(C)(C1)CC(C(=O)NCc1cccnc1)(C2)C3	active: 11.7 µM	–
CC(C)c1[nH]c(=O)c(C#N)c2c1CSC(C)(C)C2	inconclusive: 18.5 µM [inhibitor, single point]	–
O=C(NNC(=O)C1CC(c2cccs2)=NO1)NC1CCCCC1 (stereo not drawn)	inactive	–
CC(C)N1CCC(N2CCN(C3CCCC3)CC2CCO)CC1 (stereo not drawn)	active: 13.1 µM	–
CN=c1scc(-c2ccccc2F)n1/N=C/c1ccc[nH]1	inactive	–
Cc1cc(NC2CCCC2)n2ncc(-c3ccccc3)c2n1	inactive	–
CCN(Cc1ccccc1)S(=O)(=O)c1cc(C(=O)NC(C)C2CC3CCC2C3)ccc1OC (stereo not drawn)	inconclusive: 18.5 µM [inhibitor, single point]	–
CC(C(=O)OCC(=O)c1cccc([N+](=O)[O-])c1)N1C(=O)C2C3CCC(C3)C2C1=O (stereo not drawn)	inconclusive: 16.5 µM [inhibitor, single point]	–
COc1ccc(OC)c(NC(=O)CN2C(=O)COc3ccc(C)cc32)c1	inconclusive: 18.5 µM [inhibitor, single point]	–
Cc1oc(-c2ccc(Cl)cc2)nc1CSCC(=O)NCCCN1CCOCC1	inconclusive: 18.5 µM [inhibitor, single point]	–
CC[C@]1([C@H]2O[C@@H]([C@@H]3O[C@](O)(CO)[C@@H](C)C[C@H]3C)C[C@H]2C)CC[C@@H]([C@]2(C)CC[C@@]3(C[C@@H](O)[C@@H](C)[C@@H]([C@H](C)[C@H](OC)[C@H](C)C(=O)O)O3)O2)O1	active: 0.019 µM	–
Cc1cc(OC2CCCCC2)nc(NCc2ccccc2)n1	active: 5.22 µM	–
O=C(Nc1ccc(Cl)c(S(=O)(=O)N2CCCCC2)c1)C1=COCCO1	inconclusive: 11.7 µM [inhibitor, single point]	–
CN=C1S/C(=C/c2cn(CC(=O)OC)c3ccccc23)C(=O)N1C	inconclusive: 9.28 µM [inhibitor, partial curve, poor fit]	–
Cc1nnc(SCC(=O)Nc2ccccc2)c2ccccc12	inactive	–
CC1CCN(S(=O)(=O)c2cccc(C(=O)NCC3CCCO3)c2)CC1 (stereo not drawn)	inconclusive: 20.8 µM [inhibitor, partial curve, poor fit]	–
COc1ccc2c(c1)sc1nc(=O)ccn12	inconclusive: 11.7 µM [inhibitor, single point]	–
Cc1ccc(-c2nn(-c3ccccc3)cc2CC(=S)N2CCOCC2)cc1	inconclusive: 18.5 µM [inhibitor, single point]	–
CC(=O)N1CCN(S(=O)(=O)c2cccc(C(=O)NC3CCC(C)CC3)c2)CC1 (stereo not drawn)	inconclusive: 0.233 µM [inhibitor, full curve, poor fit]	–
COC(=O)COc1ccc(C2NC(=O)NC(c3ccccc3)=C2C(C)=O)cc1Br (stereo not drawn)	inconclusive: 4.15 µM [inhibitor, single point]	–

SMILES	Potency	activity change, negative = inhibition
CCN(CC)CCn1c2c(c(SCC(=O)Nc3cccc(C(C)=O)c3)nc1=O)CCCC2	inconclusive: 18.5 µM [inhibitor, partial curve, poor fit]	–
COc1ccc(N2C(=NC(=O)C3CCCCC3)SC3CS(=O)(=O)CC32)cc1OC (stereo not drawn)	inactive	–
CN(NC(=O)c1ccccc1Cl)c1ncc(C(F)(F)F)cc1Cl	inactive	–
Nn1c(COc2ccccc2)nc2ccccc2c1=O	inactive	–
COc1ccc(NC(=O)CSc2nnc(-c3ccccn3)n2Cc2ccco2)cc1OC	inconclusive: 0.0738 µM [inhibitor, full curve, poor fit]	–
Cc1ccc(S(=O)(=O)N2CCC(C(=O)N[C@@H](C)C(=O)NCc3ccccc3)CC2)cc1	inconclusive: 18.5 µM [inhibitor, single point]	–
O=C(O)CC(Cc1ccc(Br)cc1)C(=O)Nc1ccccc1 (stereo not drawn)	inconclusive: 18.5 µM [inhibitor, single point]	–
CCN(CC)S(=O)(=O)c1ccc(N2CCOCC2)c(NC(=O)c2cc(-c3ccccn3)nc3ccccc23)c1	active: 8.28 µM	–
CN1CCN(Cc2nnc(-c3ccccc3)o2)CC1	inactive	–
CC(=O)N/C(N)=N/c1nc(=O)c2ccccc2s1	inconclusive: 1.85 µM [inhibitor, partial curve, poor fit]	–
COc1ccccc1NC(=O)CCCN1C(=O)C(c2ccccc2)Oc2cccnc21 (stereo not drawn)	inconclusive: 11.7 µM [inhibitor, single point]	–
Cc1ccc2cc(C(c3nnnn3C3CCCC3)N3CCN(c4ccccc4)CC3)c(=O)[nH]c2c1 (stereo not drawn)	inconclusive: 13.1 µM [inhibitor, partial curve, poor fit]	–
O=C(c1nc2nc(-c3ccccc3)cc(C(F)(F)F)n2n1)N1CCOCC1	inconclusive: 18.5 µM [inhibitor, single point]	–
COc1ccccc1NC(=O)/C(C#N)=C/C=C/c1ccco1	–	inactive: -4.38% [at 5.75 µM]
NCC(O)c1cc(O)c(O)cc1F (stereo not drawn)	inconclusive: 18.5 µM [inhibitor, single point]	–
Cc1cc(C)nc(NC(=O)c2cccs2)c1	inconclusive: 4.65 µM [inhibitor, single point]	–
COc1ccc(OC)c(NC(=O)CC2SC(=Nc3ccc(F)cc3)N(CCC3=CCCCC3)C2=O)c1 (stereo not drawn)	active: 4.15 µM	–
Cc1ccc(NC(=O)c2ccc(OC(=O)COc3cccc(Cl)c3)cc2)cc1	inconclusive: 2.62 µM [inhibitor, partial curve, poor fit]	–
Cc1ccc(NC(=S)N2CCCC(c3nc4ccccc4[nH]3)C2)cc1 (stereo not drawn)	inactive	–
CCOc1ccc(-n2c(=O)cc(N3CCN(c4ccc(F)cc4)CC3)[nH]c2=O)cc1	inconclusive: 18.5 µM [inhibitor, single point]	–
Cc1ccc(NC(=S)NC(NC(=O)c2ccccc2)C(Cl)(Cl)Cl)c(C)c1 (stereo not drawn)	inconclusive: 14.7 µM [inhibitor, partial curve, poor fit]	–

Structures listed so far that contain fluorine, in the order listed:
SMILES	Potency	activity change, negative = inhibition
CN=c1scc(-c2ccccc2F)n1/N=C/c1ccc[nH]1	inactive	–
CN(NC(=O)c1ccccc1Cl)c1ncc(C(F)(F)F)cc1Cl	inactive	–
O=C(c1nc2nc(-c3ccccc3)cc(C(F)(F)F)n2n1)N1CCOCC1	inconclusive: 18.5 µM [inhibitor, single point]	–
NCC(O)c1cc(O)c(O)cc1F (stereo not drawn)	inconclusive: 18.5 µM [inhibitor, single point]	–
COc1ccc(OC)c(NC(=O)CC2SC(=Nc3ccc(F)cc3)N(CCC3=CCCCC3)C2=O)c1 (stereo not drawn)	active: 4.15 µM	–
CCOc1ccc(-n2c(=O)cc(N3CCN(c4ccc(F)cc4)CC3)[nH]c2=O)cc1	inconclusive: 18.5 µM [inhibitor, single point]	–
